Laboratory results: PubChem BioAssay AID1259317 (Drosophila RNAi Screening Center, 2017)
In all, the deposit lists 418 reagents; shown is a part drawn at random. 34 of them (8.1%) count as active. 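Hits are two-sided: raised or lowered ATP both count; higher z-score means more ATP and more surviving cells.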 Not given: the amount of reagent.

Screen: 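Membrane and organelle genes affecting manganese toxicity, judged by cellular ATP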 (primary screen)
Cells: Drosophila S2R+ cells
Reagents: long dsRNA against Drosophila genes
Time to read-out: 5 days (4 days knockdown, then 1 day metal)
Conditions: manganese chloride added to 15 mM final for 1 day
Measurement: 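Cellular ATP measured by luciferase luminescence after 4 days knockdown then 1 day of 15 mM manganese chloride; z-score averaged over three plates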
Reading the numbers: mean z-score, 3 replicates: higher = more ATP, more surviving cells under manganese
Rule for the call: 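a knockdown is active when its averaged z-score lies above 1.5 or below -1.5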
Calls: active = hit: z-score beyond ±1.5 (ATP up or down); inactive = not a hit

| Gene | PubChem SID | mean z-score, 3 replicates | activity call |
| --- | --- | --- | --- |
| Tsp42Ea | SID104184774 | 1.06 | inactive |
| Tsp42Ea | SID104186584 | 0.862 | inactive |
| Ect3 | SID104195254 | -0.862 | inactive |
| Ect3 | SID104203938 | -0.117 | inactive |
| Ect3 | SID104213289 | -0.283 | inactive |
| CtsL1 | SID104185254 | 0.282 | inactive |
| CtsL1 | SID104187155 | -1.05 | inactive |
| CtsL1 | SID104207615 | -1.34 | inactive |
| CG3961 | SID104190182 | 1.37 | inactive |
| CG3961 | SID104190183 | -0.557 | inactive |
| CG3961 | SID104212885 | 1.98 | active |
| Vha14-2 | SID104191937 | -0.275 | inactive |
| ACC | SID104187041 | -0.223 | inactive |
| ACC | SID104208804 | 0.988 | inactive |
| ACC | SID104208805 | -0.104 | inactive |
| Arc42 | SID104194132 | -0.114 | inactive |
| Arc42 | SID104209896 | 0.189 | inactive |
| Arc42 | SID104209897 | 2.14 | active |
| CG17544 | SID104182416 | -0.663 | inactive |
| CG17544 | SID104204107 | 0.441 | inactive |
| Vps28 | SID104185960 | -1.01 | inactive |
| Vps28 | SID104209641 | -0.596 | inactive |
| Vps28 | SID104209642 | -1.32 | inactive |
| CG10194 | SID104181817 | 0.258 | inactive |
| or | SID104184121 | 1.56 | active |
| or | SID104207785 | 1.25 | inactive |
| or | SID104214882 | -0.538 | inactive |
| Vha100-1 | SID104205161 | 0.481 | inactive |
| Vha100-1 | SID104216564 | -0.446 | inactive |
| Vha100-1 | SID104217437 | -0.499 | inactive |
| Vha100-2 | SID104193944 | -0.853 | inactive |
| Vha100-2 | SID104207771 | 0.667 | inactive |
| Pex1 | SID104191150 | -0.473 | inactive |
| Cat | SID104190902 | -0.61 | inactive |
| Cat | SID104203021 | -0.396 | inactive |
| Cat | SID104216517 | -0.524 | inactive |
| LManIII | SID104183013 | 2.09 | active |
| LManIII | SID104207545 | -0.372 | inactive |
| LManIII | SID104213178 | 1.11 | inactive |
| Gnpat | SID104196752 | -0.0894 | inactive |
| Gnpat | SID104217988 | -0.806 | inactive |
| Vha68-1 | SID104183262 | -0.205 | inactive |
| Vha68-1 | SID104209271 | -1.02 | inactive |
| Vha68-1 | SID104218348 | 1.85 | active |
| Sap-r | SID104201540 | -0.936 | inactive |
| Sap-r | SID104205790 | -0.468 | inactive |
| Gal | SID104182926 | 0.0989 | inactive |
| Gal | SID104203263 | -0.432 | inactive |
| Parp1 | SID104187517 | 0.19 | inactive |
| Parp1 | SID104187570 | 0.454 | inactive |
| Parp1 | SID104187572 | -0.329 | inactive |
| Gbp2 | SID104185861 | -0.704 | inactive |
| Vps24 | SID104192124 | -0.695 | inactive |
| Vps24 | SID104207768 | -0.0156 | inactive |
| Vps24 | SID104211993 | 1.27 | inactive |
| Daao1 | SID104185923 | 0.468 | inactive |
| CG15117 | SID104186331 | -0.128 | inactive |
| CG15117 | SID104204017 | -0.264 | inactive |
| CG15117 | SID104211728 | -1.32 | inactive |
| Agxt | SID104198510 | -0.659 | inactive |
| Agxt | SID104204659 | -0.136 | inactive |
| Npc2f | SID104195772 | 0.791 | inactive |
| CG7049 | SID104188379 | 0.134 | inactive |
| CG7049 | SID104204900 | 1.15 | inactive |
| VhaAC39-1 | SID104206152 | -0.318 | inactive |
| VhaAC39-1 | SID104209278 | 2.23 | active |
| VhaAC39-1 | SID104209279 | 0.417 | inactive |
| Mcad | SID104189663 | 0.569 | inactive |
| Mcad | SID104204524 | 0.336 | inactive |
| Hacl | SID104185853 | -0.122 | inactive |
| Hacl | SID104214683 | -0.0309 | inactive |
| Mvl | SID104196544 | -0.763 | inactive |
| Mvl | SID104217246 | -0.201 | inactive |
| Mvl | SID104218496 | -0.113 | inactive |
| CG7300 | SID104182836 | 0.825 | inactive |
| CG7300 | SID104206783 | 0.28 | inactive |

Active calls (from the list above):
| Gene | PubChem SID | mean z-score, 3 replicates | activity call |
| --- | --- | --- | --- |
| CG3961 | SID104212885 | 1.98 | active |
| Arc42 | SID104209897 | 2.14 | active |
| or | SID104184121 | 1.56 | active |
| LManIII | SID104183013 | 2.09 | active |
| Vha68-1 | SID104218348 | 1.85 | active |
| VhaAC39-1 | SID104209278 | 2.23 | active |
